PubChem BioAssay AID493014 (National Center for Advancing Translational Sciences (NCATS), 2011)
The list shows a part of the results. The main result of the screen is listed elsewhere. These columns were measured beside it and carry no call. Most of these compounds were active or inconclusive in the main read-out, so they are no random draw. The note in brackets gives the kind of curve behind each potency; many fits are weak.

Assay: qHTS Assay to Find Inhibitors of Chronic Active B-Cell Receptor Signaling
Details: ABC-DLBCL IkBa-CBG/CBR reporter, luminescence ratio (green luciferase fused to IkBa over red control in TMD8 lymphoma cells), 4 h
How it was run: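 TMD8 human ABC-DLBCL cells with doxycycline-inducible IκBα–green luciferase fusion and unfused red luciferase, in 0.5% FBS medium; compounds up to 46 uM, 4 h at 37C. Green/red luminescence ratio, filter-overlap corrected, fitted to concentration-response curves.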

[1] = measured here: CBR red luminescence, cell number
[2] = measured here: IkBa-CBG green luminescence

## CCN(CC)S(=O)(=O)c1ccc2c3c(cccc13)C(=O)N2
[1]
  AC50: 29.1 µM [rising, single point]

## O=C(COC(=O)c1cc([N+](=O)[O-])ccc1N1CCOCC1)c1ccc(OC(F)F)cc1OC(F)F
[1]
  AC50: 3.26 µM [rising, full curve, poor fit]

## O=C(CCCN1C(=O)/C(=C/c2cccs2)SC1=S)NNC(=O)c1ccccc1O
[1]
  AC50: 1.46 µM [falling, full curve, poor fit]

## COc1ccc2c(Cl)c(C(=O)NCCCn3ccnc3)sc2c1Cl
[1]
  AC50: 5.62 µM [rising, partial curve]

## CCOC(=O)C1=C(COC(=O)c2c(OC)cccc2OC)NC(=O)NC1C (stereo unspecified)
[1]
  AC50: 29.1 µM [falling, single point]

## CCCN1C(=O)c2ccccc2NC1c1ccc(OC)c(CSc2ccccn2)c1 (stereo unspecified)
[1]
  AC50: 29.1 µM [falling, single point]

## COc1ccc(S(=O)(=O)NN=C2CCCCC2)cc1
[1]
  AC50: 0.112 µM [falling, full curve, poor fit]

## O=C1Nc2c(c(=O)[nH]c(=O)n2-c2ccccc2)C1(Nc1ncccn1)C(F)(F)F (stereo unspecified)
[1]
  AC50: 25.9 µM [rising, single point]

## O=C(CCn1c(=O)[nH]c2ccsc2c1=O)NCCc1ccc(Cl)cc1
[1]
  AC50: 4.11 µM [rising, full curve, poor fit]

## COc1nnc(-c2ccccc2)s1
[1]
  AC50: 3.26 µM [rising, single point]

## C=CCn1c(=NC(=O)CC)n(C)c2ccccc21
[1]
  AC50: 4.61 µM [rising, partial curve, poor fit]

## CCN1CCN(c2nc3ccccn3c(=O)c2C=O)CC1
[1]
  AC50: 3.55 µM [rising, single point]

## Cc1cccc(NC(=O)C2CCCN(C(=O)Nc3ccc(F)cc3)C2)c1C (stereo unspecified)
[1]
  AC50: 35.5 µM [rising, single point]

## O=C(c1cc(-c2ccc(Cl)cc2)on1)N1CCOCC1
[1]
  AC50: 1.64 µM [falling, full curve, poor fit]

## N#Cc1c(C#N)c(-c2ccccc2)n(-c2ccccc2)c1N
[1]
  AC50: 3.55 µM [rising, partial curve, poor fit]

## COc1ccc(/C=C(/NC(=O)c2ccccc2OC)C(=O)Nc2ccc(C(=O)O)cc2)cc1
[1]
  AC50: 1.78 µM [rising, full curve, poor fit]

## O=C(CN1C(=O)c2ccccc2C1=O)Nc1ccccc1C(=O)N1CCCC1
[1]
  AC50: 14.6 µM [rising, partial curve, poor fit]

## CCN(CC)S(=O)(=O)c1cccc(C(=O)N[C@H](C(=O)Nc2nc3ccccc3s2)C(C)C)c1
[1]
  AC50: 29.1 µM [rising, single point]

## COc1cc(OC)cc(C(=O)NCC(=O)Nc2ccc(-c3ccccc3)cc2)c1
[1]
  AC50: 11.2 µM [rising, partial curve, poor fit]
[2]
  AC50: 15.8 µM [falling, partial curve]

## CCC(CO)Oc1cc(NCc2ccccc2C(F)(F)F)c2ncn(C(C)C)c2c1 (stereo unspecified)
[1]
  AC50: 0.731 µM [rising, full curve, poor fit]

## CCOC(=O)CNC(=O)CSc1nc(-c2cccc(C)c2)ns1
[1]
  AC50: 35.5 µM [falling, single point]

## Cc1nn(Cc2c(F)c(F)c(F)c(F)c2F)c(C)c1NC(=O)c1c([N+](=O)[O-])cnn1C
[1]
  AC50: 29.1 µM [falling, single point]

## O=C(CN1C(=O)c2ccccc2S1(=O)=O)Nc1ccccc1
[1]
  AC50: 1.78 µM [falling, partial curve]

## COc1ccc(/C=C2\SC(=S)N(CCCCCC(=O)Nc3cc(C)on3)C2=O)cc1OC
[1]
  AC50: 6.31 µM [falling, partial curve]

## Cc1ccc(Sc2c(CO)c(-c3ccccc3)nn2C)cc1
[1]
  AC50: 3.16 µM [rising, single point]
[2]
  AC50: 3.98 µM [falling, partial curve]

## Cn1c(SCC(=O)N2CCCCC2)nc2c([nH]c3ccccc32)c1=O
[1]
  AC50: 1.3 µM [falling, full curve]

## CC(=O)C(Sc1nc(N(C)C)nc(N(C)C)n1)C(=O)Nc1ccccc1 (stereo unspecified)
[1]
  AC50: 17.8 µM [rising, partial curve, poor fit]

## CCCSc1ccc([C@H]2N[C@@](Cc3ccccc3)(C(=O)OC)[C@H]3C(=O)N(CC)C(=O)[C@@H]23)cc1
[1]
  AC50: 0.58 µM [falling, full curve, poor fit]

## O=C(O)c1nn(CCOc2ccc(Br)cc2)c(=O)c2ccccc12
[1]
  AC50: 1.41 µM [rising, partial curve, poor fit]

## CCc1cc(C(=O)Nc2ccccc2)cs1
[1]
  AC50: 5.8 µM [falling, single point]

## O=C(NC(=S)N1CCN(Cc2ccc3c(c2)OCO3)CC1)c1ccc(Cl)cc1
[1]
  AC50: 20.6 µM [rising, single point]

## Cc1cc(=O)n2[nH]c(-c3ccc(Cl)cc3)cc2n1
[1]
  AC50: 5.8 µM [falling, partial curve]

## COc1ccc(C2(C)NC(=O)N(CC(=O)Nc3ccc(Br)c(C)c3)C2=O)cc1OC (stereo unspecified)
[1]
  AC50: 12.6 µM [rising, partial curve]

## Nc1ncnc2c1ncn2C1OC(C(=O)NC2CC2)C(O)C1O (stereo unspecified)
[1]
  AC50: 0.0231 µM [rising, full curve, poor fit]
[2]
  AC50: 0.146 µM [falling, full curve]

## CC(C)c1ccc(-c2nnn(CCC#N)n2)cc1
[1]
  AC50: 10 µM [rising, partial curve, poor fit]

## O=C(Nc1nccs1)c1cc(-c2ccco2)nc2ccccc12
[1]
  AC50: 1.64 µM [falling, full curve]

## CCCCN(C)C(=O)c1ccc2c(c1)N(Cc1cccc(F)c1)C(=O)c1ccccc1S2
[1]
  AC50: 35.5 µM [falling, single point]

## Oc1cccc(Nc2nc(NCC3CCCO3)c3ccccc3n2)c1 (stereo unspecified)
[1]
  AC50: 29.1 µM [falling, single point]

## Cc1cccc(N(C)C(=O)c2cc3c(=O)[nH]c4ccc(C)cc4c3s2)c1
[1]
  AC50: 8.91 µM [rising, partial curve, poor fit]

## O=C(O)COc1ccc(NC(=O)c2ccc(NC(=O)c3ccco3)cc2)cc1
[1]
  AC50: 35.5 µM [falling, single point]

## O=C(CCC(=O)Nc1ccccc1)NNC(=O)c1ccco1
[1]
  AC50: 0.092 µM [rising, full curve, poor fit]

## CCCCCCC(=O)N(O)C1CC(=O)N(Cc2ccccc2)C1=O (stereo unspecified)
[1]
  AC50: 3.55 µM [falling, partial curve, poor fit]

## C=CCn1c(=O)c2c3c(sc2n2c(Nc4ccc(C(=O)OCC)cc4)nnc12)CCCC3
[1]
  AC50: 20.6 µM [falling, partial curve, poor fit]

## CCN(Cc1ccncc1)Cc1c(O)ccc2cc(Br)ccc12
[1]
  AC50: 35.5 µM [falling, single point]

## COc1cccc(N/C(N)=N/c2nc(CSc3ccccn3)cc(=O)[nH]2)c1
[1]
  AC50: 3.98 µM [rising, partial curve, poor fit]
[2]
  AC50: 3.98 µM [falling, single point]

## O=C(Nc1ccccc1Oc1cccnc1)C1CCCN(Cc2ccc(F)cc2)C1 (stereo unspecified)
[1]
  AC50: 35.5 µM [falling, single point]

## COc1ccc(Nc2cc(C(=O)NCc3cccnc3)c3ccccc3n2)c(OC)c1
[1]
  AC50: 12.6 µM [falling, partial curve, poor fit]

## COc1ccc(/C(O)=C2/C(=O)C(=O)N(CCN(C)C)C2c2ccccn2)cc1OC (stereo unspecified)
[1]
  AC50: 18.4 µM [rising, single point]

## O=C(CCCCCn1c(=S)[nH]c2cc3c(cc2c1=O)OCO3)N1CCN(Cc2ccccc2)CC1
[1]
  AC50: 6.51 µM [falling, single point]

## O=S(=O)(N1CCCCC1)N1CCCN(S(=O)(=O)N2CCCCC2)CC1
[1]
  AC50: 14.6 µM [rising, partial curve, poor fit]

## CCOc1cc(CNCCO)cc(Br)c1OCc1ccccc1
[1]
  AC50: 14.1 µM [falling, single point]

## CC1CCN(C(=O)COC(=O)CNC(=O)c2ccccc2F)CC1
[1]
  AC50: 6.51 µM [rising, single point]

## CC(Sc1nnc(Cc2ccccc2)o1)C(=O)Nc1ccccc1[N+](=O)[O-] (stereo unspecified)
[1]
  AC50: 29.1 µM [rising, single point]

## CN1CCN(S(=O)(=O)c2cccc(C(=O)Nc3sc4c(c3-c3nc5ccccc5[nH]3)CCCC4)c2)CC1
[1]
  AC50: 5.8 µM [rising, full curve]

## CCCn1nnc(NCc2ccc(OCc3cccs3)c(OC)c2)n1
[1]
  AC50: 5.17 µM [rising, single point]

## O=C(NNC(=O)c1ccccc1O)c1ccc(Cl)c(S(=O)(=O)N2CCc3ccccc32)c1
[1]
  AC50: 29.1 µM [falling, single point]

## COc1ccccc1NS(=O)(=O)c1cc(NC(=O)c2ccc3c(c2)OCCO3)ccc1C
[1]
  AC50: 25.9 µM [falling, partial curve, poor fit]

## O=C(CN1CC(=O)Oc2ccccc21)OCC(=O)c1ccccc1
[1]
  AC50: 8.2 µM [falling, partial curve]

## COc1ccc(C2=NOC(C(=O)NCCCn3ccnc3)C2)cc1 (stereo unspecified)
[1]
  AC50: 32.6 µM [rising, single point]

## COc1ccc(N2CCN(Cc3cc(=O)oc4cc(C)c(Cl)cc34)CC2)cc1
[1]
  AC50: 6.51 µM [rising, single point]

## O=C(N/N=C(\c1ccccc1)c1cccnc1)C(O)(c1ccccc1)c1ccccc1
[1]
  AC50: 14.1 µM [falling, single point]
[2]
  AC50: 31.6 µM [rising, partial curve, poor fit]
